Counter-ions that a name gives are not always drawn. At least one compound was matched to its structure with a doubt left.
Test system: bioluminescent S. aureus Xen29
Assay: Kirby-Bauer disc diffusion test of antibiotic-loaded RSFPs
Format: cell-based
Details: zones of inhibition on XEN29 cultures after 12 hours, vs blank RSFPs
Procedure: Antimicrobial activity of tobramycin sulfate (TS), gentamicin sulfate (GS) and kanamycin sulfate (KS) encapsulated in RSFPs sized 100-500 mcm was assessed by Kirby-Bauer disc diffusion tests, performed according to methods outlined in the NCCLS Approved Standard M2-A7. A stock suspension of bioluminescent S. aureus Xen29 was prepared in sterile physiological solution and turbidity (expressed as optical density; OD) was adjusted against the McFahrland standard to match the 0.5 level. A sterilized cotton swab was immersed in the bacterial suspension, and a lawn of bacteria was applied on the Luria Bertani (LB) plates. A 10-mm biopsy punch was used to cut two circular fragments from each of the freshly infected plates, and both fragments were coated with antibiotic-loaded RSFPs by quick blotting against the pool of particles. The freshly mounted samples were inserted […] II system (Caliper life Science, America). The exposure time (1 s), excitation filter (430 nm), and emission filter with emission wavelength from 575 to 650 nm (DsRed) were set prior to detection.

NC[C@H]1O[C@H](O[C@H]2[C@H](O)[C@@H](O[C@H]3O[C@H](CO)[C@@H](O)[C@H](N)[C@H]3O)[C@H](N)C[C@@H]2N)[C@H](O)[C@@H](O)[C@@H]1O [KS, kanamycin sulfate]
post-processing antimicrobial activity (antibiotic function) of cryoencapsulated antibiotics: preserved

Source: patent US20220125930A1, “SYSTEM AND METHOD FOR FABRICATION OF LARGE, POROUS DRUG-SILK MATERIALS USING CRYOGRANULATION” (Trustees of Tufts College, priority 2019, published 2022)
